{
  "source": "patent US20100137232A1",
  "about": "(priority 2004, published 2010)",
  "origin": "cited, not measured here",
  "tested_on": "plasma proteins, mainly albumin",
  "conditions": "cited from earlier work",
  "data": [
    {"smiles": "NS(=O)(=O)c1cc(C(=O)O)c(NCc2ccco2)cc1Cl", "note": "[Frusemide, 4-chloro-N-furfuryl-5-sulfamoylanthranilic acid]", "values": [
      {"measurement": "unbound fraction", "setting": "at therapeutic concentrations", "result": "2.3-4.1%"},
      {"measurement": "bound to plasma proteins", "setting": "plasma concentrations ranging from 1 to 400 μg/ml, healthy individuals", "result": "91-99%"}
    ]}
  ]
}
